Test results taken from the supplement of paper PMC12067093, “Discovery and optimisation of a covalent ligand for TRIM25 and its application to targeted protein ubiquitination” (Chemical Science, 2025).
The list shows a part of the results.

Sequences of proteins named here, by UniProt entry; tags and fusion partners are left off. A change or cut given only in a name is not applied to a line headed by its entry.
UniProt Q9ULX3: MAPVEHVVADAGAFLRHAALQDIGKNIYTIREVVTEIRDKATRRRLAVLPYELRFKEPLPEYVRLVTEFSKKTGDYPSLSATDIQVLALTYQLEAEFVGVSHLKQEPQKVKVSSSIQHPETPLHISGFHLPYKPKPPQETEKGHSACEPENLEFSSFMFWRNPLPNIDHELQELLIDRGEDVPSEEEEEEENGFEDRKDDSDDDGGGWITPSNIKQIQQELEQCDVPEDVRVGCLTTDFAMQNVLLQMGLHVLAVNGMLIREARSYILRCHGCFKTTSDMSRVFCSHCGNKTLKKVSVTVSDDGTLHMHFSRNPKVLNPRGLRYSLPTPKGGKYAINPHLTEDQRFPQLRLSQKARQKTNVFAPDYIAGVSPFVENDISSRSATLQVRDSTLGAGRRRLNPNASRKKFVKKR
UniProt Q9H8H0: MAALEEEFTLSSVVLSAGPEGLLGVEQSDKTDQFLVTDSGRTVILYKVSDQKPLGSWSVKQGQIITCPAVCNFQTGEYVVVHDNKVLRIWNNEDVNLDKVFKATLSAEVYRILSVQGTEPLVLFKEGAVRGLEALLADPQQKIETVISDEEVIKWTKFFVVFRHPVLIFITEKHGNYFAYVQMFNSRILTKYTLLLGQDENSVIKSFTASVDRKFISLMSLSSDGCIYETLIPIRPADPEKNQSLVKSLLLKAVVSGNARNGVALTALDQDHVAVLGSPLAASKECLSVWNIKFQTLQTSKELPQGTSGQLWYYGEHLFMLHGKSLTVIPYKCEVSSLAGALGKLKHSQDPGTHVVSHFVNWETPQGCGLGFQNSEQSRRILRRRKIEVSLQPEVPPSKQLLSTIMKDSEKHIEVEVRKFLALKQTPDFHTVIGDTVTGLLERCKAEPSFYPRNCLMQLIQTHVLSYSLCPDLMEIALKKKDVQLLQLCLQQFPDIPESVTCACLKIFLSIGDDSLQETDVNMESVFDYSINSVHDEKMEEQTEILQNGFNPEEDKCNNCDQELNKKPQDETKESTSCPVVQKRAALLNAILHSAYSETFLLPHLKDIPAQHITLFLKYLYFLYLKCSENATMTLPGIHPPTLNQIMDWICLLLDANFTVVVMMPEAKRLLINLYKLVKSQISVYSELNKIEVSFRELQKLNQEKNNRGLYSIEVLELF
UniProt Q15738: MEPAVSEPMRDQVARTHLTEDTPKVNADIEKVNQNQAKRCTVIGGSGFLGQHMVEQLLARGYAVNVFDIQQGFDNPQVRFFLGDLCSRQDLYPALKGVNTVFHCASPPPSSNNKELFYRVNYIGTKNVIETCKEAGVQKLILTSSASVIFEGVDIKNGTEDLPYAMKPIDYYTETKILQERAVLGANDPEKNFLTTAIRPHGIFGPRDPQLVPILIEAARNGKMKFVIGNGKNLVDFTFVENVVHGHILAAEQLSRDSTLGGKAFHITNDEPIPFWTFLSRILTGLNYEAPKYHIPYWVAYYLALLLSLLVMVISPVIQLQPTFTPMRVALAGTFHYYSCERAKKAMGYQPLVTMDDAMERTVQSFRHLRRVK
UniProt Q9BSC4: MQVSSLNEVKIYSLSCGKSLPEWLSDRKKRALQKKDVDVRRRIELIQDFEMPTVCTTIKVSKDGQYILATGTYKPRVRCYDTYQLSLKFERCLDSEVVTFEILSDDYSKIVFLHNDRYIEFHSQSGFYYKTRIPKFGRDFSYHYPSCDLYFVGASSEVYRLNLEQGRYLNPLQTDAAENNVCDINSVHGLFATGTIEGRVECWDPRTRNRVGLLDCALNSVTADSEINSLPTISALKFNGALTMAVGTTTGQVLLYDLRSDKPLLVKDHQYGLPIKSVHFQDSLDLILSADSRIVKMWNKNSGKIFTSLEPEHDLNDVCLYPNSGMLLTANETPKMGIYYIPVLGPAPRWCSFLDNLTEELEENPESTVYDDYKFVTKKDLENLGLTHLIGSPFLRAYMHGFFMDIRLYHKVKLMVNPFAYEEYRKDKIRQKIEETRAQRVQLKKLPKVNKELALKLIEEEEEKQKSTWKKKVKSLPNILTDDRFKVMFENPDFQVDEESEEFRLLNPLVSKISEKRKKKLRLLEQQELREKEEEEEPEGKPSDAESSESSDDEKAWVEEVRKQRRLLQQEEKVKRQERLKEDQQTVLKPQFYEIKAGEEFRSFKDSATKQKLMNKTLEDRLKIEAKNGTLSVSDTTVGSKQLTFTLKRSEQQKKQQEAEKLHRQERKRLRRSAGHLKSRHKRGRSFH
UniProt Q8NDH3: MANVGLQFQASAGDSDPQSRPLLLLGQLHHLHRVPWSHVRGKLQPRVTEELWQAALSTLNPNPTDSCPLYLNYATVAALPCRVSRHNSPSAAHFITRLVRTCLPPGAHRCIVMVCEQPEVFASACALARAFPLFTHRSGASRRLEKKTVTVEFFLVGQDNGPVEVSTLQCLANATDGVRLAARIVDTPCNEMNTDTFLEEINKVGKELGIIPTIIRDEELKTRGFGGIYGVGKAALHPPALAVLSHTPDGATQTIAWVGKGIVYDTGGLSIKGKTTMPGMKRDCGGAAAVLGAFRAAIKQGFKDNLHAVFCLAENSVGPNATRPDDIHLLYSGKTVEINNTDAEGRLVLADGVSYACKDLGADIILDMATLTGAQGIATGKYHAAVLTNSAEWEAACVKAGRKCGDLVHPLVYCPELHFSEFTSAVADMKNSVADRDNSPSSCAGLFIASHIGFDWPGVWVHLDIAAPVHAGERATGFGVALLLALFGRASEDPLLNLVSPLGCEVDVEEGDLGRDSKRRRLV
UniProt Q9BZ95: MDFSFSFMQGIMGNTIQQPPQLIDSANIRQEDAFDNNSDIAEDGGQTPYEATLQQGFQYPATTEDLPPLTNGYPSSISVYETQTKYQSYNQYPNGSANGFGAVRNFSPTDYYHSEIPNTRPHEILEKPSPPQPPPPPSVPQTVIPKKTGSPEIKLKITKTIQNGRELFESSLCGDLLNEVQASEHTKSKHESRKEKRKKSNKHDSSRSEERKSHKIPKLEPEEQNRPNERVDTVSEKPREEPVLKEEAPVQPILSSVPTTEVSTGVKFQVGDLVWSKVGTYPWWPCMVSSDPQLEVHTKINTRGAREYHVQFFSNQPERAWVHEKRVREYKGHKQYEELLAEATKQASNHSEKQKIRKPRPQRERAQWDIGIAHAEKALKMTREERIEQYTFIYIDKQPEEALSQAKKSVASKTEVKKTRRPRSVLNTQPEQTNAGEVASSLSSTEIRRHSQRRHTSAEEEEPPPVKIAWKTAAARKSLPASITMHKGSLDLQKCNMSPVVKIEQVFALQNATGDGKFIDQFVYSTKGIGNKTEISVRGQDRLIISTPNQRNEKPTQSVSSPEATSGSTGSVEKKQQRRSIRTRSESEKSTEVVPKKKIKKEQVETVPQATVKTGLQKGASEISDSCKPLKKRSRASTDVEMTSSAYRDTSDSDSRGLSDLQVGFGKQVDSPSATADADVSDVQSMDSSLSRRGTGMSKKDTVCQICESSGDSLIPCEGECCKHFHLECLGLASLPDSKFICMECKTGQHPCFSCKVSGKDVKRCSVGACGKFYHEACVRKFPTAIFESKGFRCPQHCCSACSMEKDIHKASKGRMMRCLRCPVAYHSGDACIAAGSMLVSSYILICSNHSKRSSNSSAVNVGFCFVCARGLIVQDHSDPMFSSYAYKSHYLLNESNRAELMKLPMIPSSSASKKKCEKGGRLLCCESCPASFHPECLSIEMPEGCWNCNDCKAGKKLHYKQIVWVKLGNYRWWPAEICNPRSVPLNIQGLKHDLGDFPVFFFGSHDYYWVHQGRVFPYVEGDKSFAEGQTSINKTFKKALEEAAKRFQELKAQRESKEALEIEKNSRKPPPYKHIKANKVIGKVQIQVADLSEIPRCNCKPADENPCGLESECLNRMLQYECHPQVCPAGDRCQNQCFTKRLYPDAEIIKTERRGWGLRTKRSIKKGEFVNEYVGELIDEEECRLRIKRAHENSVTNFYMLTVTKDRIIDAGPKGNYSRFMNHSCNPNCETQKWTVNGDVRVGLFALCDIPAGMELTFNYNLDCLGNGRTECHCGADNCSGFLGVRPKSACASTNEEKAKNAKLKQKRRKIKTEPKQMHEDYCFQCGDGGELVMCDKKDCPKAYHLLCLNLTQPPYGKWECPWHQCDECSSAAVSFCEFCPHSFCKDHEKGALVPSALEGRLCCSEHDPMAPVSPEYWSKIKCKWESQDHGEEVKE
UniProt Q96P11: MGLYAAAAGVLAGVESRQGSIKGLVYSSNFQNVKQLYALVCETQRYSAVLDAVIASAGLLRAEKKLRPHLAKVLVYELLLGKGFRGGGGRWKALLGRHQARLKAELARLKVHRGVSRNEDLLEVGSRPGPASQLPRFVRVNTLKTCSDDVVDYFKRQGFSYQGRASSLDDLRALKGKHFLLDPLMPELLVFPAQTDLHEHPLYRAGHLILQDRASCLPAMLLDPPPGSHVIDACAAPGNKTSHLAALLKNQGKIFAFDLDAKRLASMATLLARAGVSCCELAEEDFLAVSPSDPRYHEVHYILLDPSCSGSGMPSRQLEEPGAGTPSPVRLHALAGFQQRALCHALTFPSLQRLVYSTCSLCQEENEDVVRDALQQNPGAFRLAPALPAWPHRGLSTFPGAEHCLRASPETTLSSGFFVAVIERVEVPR
UniProt Q9NVX2: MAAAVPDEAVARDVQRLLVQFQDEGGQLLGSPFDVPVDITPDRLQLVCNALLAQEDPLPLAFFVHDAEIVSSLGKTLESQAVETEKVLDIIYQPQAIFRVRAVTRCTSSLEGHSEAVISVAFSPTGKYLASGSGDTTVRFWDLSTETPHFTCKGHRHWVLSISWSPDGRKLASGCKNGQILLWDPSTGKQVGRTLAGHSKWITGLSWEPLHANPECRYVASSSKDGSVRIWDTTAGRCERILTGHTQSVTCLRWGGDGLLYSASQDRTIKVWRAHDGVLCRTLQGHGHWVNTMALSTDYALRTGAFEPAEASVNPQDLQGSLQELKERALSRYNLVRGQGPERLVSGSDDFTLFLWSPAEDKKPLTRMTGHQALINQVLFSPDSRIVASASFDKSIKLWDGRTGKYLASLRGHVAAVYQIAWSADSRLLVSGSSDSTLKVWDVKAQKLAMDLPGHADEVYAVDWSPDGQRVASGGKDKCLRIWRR
UniProt Q13287: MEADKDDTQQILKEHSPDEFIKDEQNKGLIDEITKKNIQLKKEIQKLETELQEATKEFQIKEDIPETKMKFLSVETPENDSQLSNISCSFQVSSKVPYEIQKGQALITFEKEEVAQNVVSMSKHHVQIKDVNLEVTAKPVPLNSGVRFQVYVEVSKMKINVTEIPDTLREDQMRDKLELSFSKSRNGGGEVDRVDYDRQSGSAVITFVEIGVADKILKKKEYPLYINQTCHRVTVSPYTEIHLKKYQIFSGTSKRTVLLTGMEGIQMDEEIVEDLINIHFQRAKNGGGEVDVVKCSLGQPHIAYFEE
UniProt Q9BYT8, whole entry, looked up: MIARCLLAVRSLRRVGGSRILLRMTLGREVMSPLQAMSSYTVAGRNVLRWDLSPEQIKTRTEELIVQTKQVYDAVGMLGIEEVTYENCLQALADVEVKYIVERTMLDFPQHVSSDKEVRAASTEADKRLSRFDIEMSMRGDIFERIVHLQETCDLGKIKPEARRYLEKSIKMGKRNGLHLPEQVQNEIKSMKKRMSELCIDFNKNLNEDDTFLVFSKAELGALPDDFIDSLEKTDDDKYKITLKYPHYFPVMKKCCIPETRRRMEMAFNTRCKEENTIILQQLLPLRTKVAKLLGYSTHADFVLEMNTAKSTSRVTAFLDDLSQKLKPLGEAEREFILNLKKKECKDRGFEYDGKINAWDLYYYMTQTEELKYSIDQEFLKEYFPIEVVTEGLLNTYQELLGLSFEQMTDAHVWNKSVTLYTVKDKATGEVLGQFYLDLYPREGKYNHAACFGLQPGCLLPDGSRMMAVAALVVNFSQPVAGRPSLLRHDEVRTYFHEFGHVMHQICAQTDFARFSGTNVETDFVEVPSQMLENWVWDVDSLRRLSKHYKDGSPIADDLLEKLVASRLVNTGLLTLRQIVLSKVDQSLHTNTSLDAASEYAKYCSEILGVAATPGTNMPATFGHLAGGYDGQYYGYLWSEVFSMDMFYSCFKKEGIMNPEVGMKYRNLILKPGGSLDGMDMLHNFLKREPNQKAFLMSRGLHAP
UniProt Q16656: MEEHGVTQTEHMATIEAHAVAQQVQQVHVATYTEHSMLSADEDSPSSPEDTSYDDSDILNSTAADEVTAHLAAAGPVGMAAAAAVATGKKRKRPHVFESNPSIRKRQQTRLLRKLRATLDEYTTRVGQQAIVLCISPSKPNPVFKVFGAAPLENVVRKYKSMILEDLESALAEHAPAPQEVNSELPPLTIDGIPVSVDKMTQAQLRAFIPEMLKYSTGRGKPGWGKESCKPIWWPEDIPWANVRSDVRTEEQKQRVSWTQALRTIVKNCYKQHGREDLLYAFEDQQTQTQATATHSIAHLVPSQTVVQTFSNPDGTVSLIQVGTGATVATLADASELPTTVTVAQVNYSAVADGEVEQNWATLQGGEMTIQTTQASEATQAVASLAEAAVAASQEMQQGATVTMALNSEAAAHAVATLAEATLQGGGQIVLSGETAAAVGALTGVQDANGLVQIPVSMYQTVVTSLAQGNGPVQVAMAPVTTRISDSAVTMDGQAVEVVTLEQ

Compound: CC1Cc2ccccc2N1C(=O)C1CCCN(C1)C(=O)CCl (mixture of isomers) [TRIM25 ligand 11 (diastereomer mixture)]
Assay: probe-labelled cysteine peptide fold change vs DMSO (competition) (log2 fold change); higher = less target engagement (more negative = stronger competition)
Settings: 50 µM; THP-1; incubation time: 4 h
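Note: competitive chemoproteomic profiling in live THP-1 cells with an iodoacetamide desthiobiotin (IA-DTB) probe, comparing probe-labelled peptide intensities in compound-treated cells against DMSO-treated controls.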

Going from “NOB1_Q9ULX3_147_GHSACEPENLEFSSFMFWR (UniProt Q9ULX3)” to “NOL11_Q9H8H0_578_ESTSCPVVQK (UniProt Q9H8H0)”, the “probe-labelled cysteine peptide fold change” value rises from -0.119 to 0.00271.

First: NSDHL_Q15738_132_NVIETCK (UniProt Q15738)
Second: NOL10_Q9BSC4_55_RIELIQDFEMPTVCTTIK (UniProt Q9BSC4)
The “probe-labelled cysteine peptide fold change” value of the first is higher: 0.0879 for the first, -0.132 for the second.

First: NOP58_Q9Y2X3_139_EMAAMCLGLAHSLSR (UniProt Q9Y2X3)
Second: NPEPL1_Q8NDH3_404+414_CGDLVHPLVYCPELHFSEFTSAVADMK (UniProt Q8NDH3)
The “probe-labelled cysteine peptide fold change” value of the first is higher: -0.0217 for the first, -0.278 for the second.

Going from “NSD3_Q9BZ95_173_ELFESSLCGDLLNEVQASEHTK (UniProt Q9BZ95)” to “NSD3_Q9BZ95_729_HFHLECLGLASLPDSK (UniProt Q9BZ95)”, the “probe-labelled cysteine peptide fold change” value rises from -0.215 to -0.104.

Going from “NOL11_Q9H8H0_286_ECLSVWNIK (UniProt Q9H8H0)” to “NSUN5_Q96P11_278+279_AGVSCCELAEEDFLAVSPSDPR (UniProt Q96P11)”, the “probe-labelled cysteine peptide fold change” value falls from 0.13 to -0.117.

First: NLE1_Q9NVX2_251_ILTGHTQSVTCLR (UniProt Q9NVX2)
Second: NMI_Q13287_295_CSLGQPHIAYFEE (UniProt Q13287)
The “probe-labelled cysteine peptide fold change” value of the first is higher: -0.00734 for the first, -0.0357 for the second.

Compared with “NLN_Q9BYT8_458_YNHAACFGLQPGCLLPDGSR (UniProt Q9BYT8)”, “NRF1_Q16656_134_VGQQAIVLCISPSKPNPVFK (UniProt Q16656)” is lower in “probe-labelled cysteine peptide fold change” value: 0.016 for the first, -0.181 for the second.

Compared with “NONO_Q15233_208_CSEGSFLLTTFPRPVTVEPMDQLDDEEGLPEK (UniProt Q15233)”, “NSDHL_Q15738_40_CTVIGGSGFLGQHMVEQLLAR (UniProt Q15738)” is higher in “probe-labelled cysteine peptide fold change” value: -0.302 for the first, -0.189 for the second.
